In the supplement of paper PMC10735217:
Counter-ions that a name gives are not always drawn. The list shows a part of the results. This data set is noisy: repeats of one test often differ as much as different tests do.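 Human kidney-derived cells stably carry a construct in which eight TEAD-binding elements drive luciferase, measured by luminescence in a drug-repurposing library screen. A hit is any compound whose signal exceeds the plate mean by more than five robust Z scores.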

Tested on: HEK293A TEAD-LUC reporter
Assay: TEAD-luciferase reporter activity (YAP activation), robust Z score vs plate; higher = stronger YAP/TEAD activation
Conditions: 24 h

SMILES | TEAD-luciferase reporter activity (compound concentration: 200 nM) | TEAD-luciferase reporter activity (compound concentration: 2 uM) | TEAD-luciferase reporter activity (compound concentration: 10 uM)
CCCCCCCNC(=O)Nc1c(F)cc(F)cc1CCc1ccc(CC(C)(C)C)cc1 | inactive: -1.22 | inactive: -0.249 | inactive: -0.61
Cc1onc(-c2ccccc2)c1-c1ccc(S(N)(=O)=O)cc1 | inactive: 0.106 | – | inactive: 2.65
Cc1onc(-c2ccccc2)c1-c1ccc(S(N)(=O)=O)cc1 [valdecoxib] | – | inactive: -1.6 | –
COC1/C=C/OC2(C)Oc3c(C)c(O)c4c(O)c(c(/C=N/N5CCN6CCCCC6C5)c(O)c4c3C2=O)NC(=O)/C(C)=C\C=C\C(C)C(O)C(C)C(O)C(C)C(OC(C)=O)C1C (stereo unspecified) | inactive: -1.34 | inactive: -1.87 | inactive: -2.68
CC1=C(CC(=O)O)c2cc(F)ccc2/C1=C\c1ccc(S(C)(=O)=O)cc1 [Exisulind] | – | inactive: -1.06 | –
CC1=C(CC(=O)O)c2cc(F)ccc2/C1=C\c1ccc(S(C)(=O)=O)cc1 [Sulindac sulfone] | inactive: 0.386 | – | inactive: 1.95
C=CC[C@@H]1/C=C(\C)C[C@H](C)C[C@H](OC)[C@H]2O[C@@](O)(C(=O)C(=O)N3CCCC[C@H]3C(=O)O[C@H](/C(C)=C/[C@@H]3CC[C@@H](O)[C@H](OC)C3)[C@H](C)[C@@H](O)CC1=O)[C@H](C)C[C@@H]2OC [Tacrolimus (Fk506)] | inactive: 1.34 | – | inactive: 0.115
C=CC[C@@H]1/C=C(\C)C[C@H](C)C[C@H](OC)[C@H]2O[C@@](O)(C(=O)C(=O)N3CCCC[C@H]3C(=O)O[C@H](/C(C)=C/[C@@H]3CC[C@@H](O)[C@H](OC)C3)[C@H](C)[C@@H](O)CC1=O)[C@H](C)C[C@@H]2OC [Tacrolimus] | – | inactive: 0.238 | –
C=O | inactive: 2.23 | inactive: 0.25 | inactive: -0.501
CN1C[C@H]2C[C@@H](NC(=O)c3n[nH]c4ccccc34)C[C@@H](C1)N2C | inactive: -3.3 | inactive: 1.56 | inactive: -1.6
O=C1NC2(CCN(CC3CCCCC3)CC2)Oc2ccccc21 | inactive: 1.22 | – | inactive: 1.47
COc1ncnc(NS(=O)(=O)c2ccc(N)cc2)c1OC [Sulfadoxine] | inactive: -1.39 | inactive: 1.59 | inactive: 1.01
O=S(=O)(Nc1cc(-c2ccccn2)nn1-c1ccccc1)c1ccccc1 | inactive: -2.09 | – | inactive: 0.283
O=C(NN1CCCCC1)C1=NN(c2ccc(Cl)cc2Cl)C(c2ccc(Cl)cc2)C1 (stereo unspecified) [Rosonabant] | inactive: 0.415 | inactive: -0.0439 | inactive: 0.65
CC(=O)OC1CCC2(C)C(=CCC3C2CCC2(C)C(C(C)=O)CCC32)C1 (stereo unspecified) [Pregnenolone acetate] | inactive: -1.38 | inactive: 0.246 | inactive: 1.22
NC[C@H]1OB(O)c2c(OCCCO)cccc21 [Epetraborole HCl] | inactive: -0.661 | inactive: -0.703 | inactive: -1.26
CCCNc1cc(CC)c(-c2ccccc2)nn1 | active: 5.57 | inactive: -0.721 | inactive: -0.748
N=C(N)NCCCOc1ccccc1 | inactive: -0.92 | inactive: 0.299 | inactive: 0.826
Fc1cc(-c2cccc(-c3ncn[nH]3)c2)cc(F)c1CNC1Cc2ccccc2C1 | inactive: -1.42 | inactive: 1.03 | inactive: -0.68
CC(C)n1nc(-c2cccc(Cl)c2Cl)c(N)nc1=N [Palatrigine] | inactive: -0.443 | inactive: 3.43 | inactive: -1.4
CCCCCCCC[C@H](SCCCCCC)C(=O)Nc1c(SC)cc(C)nc1SC | inactive: -0.286 | inactive: -0.0699 | inactive: -0.252
CC(=O)c1ccc2c(c1)N(CCCN1CCN(CCO)CC1)c1ccccc1S2 | inactive: -0.814 | inactive: -0.796 | inactive: 1.05
CC(F)(F)CN1CCOc2c(nn(-c3ccccc3Cl)c2-c2ccc(Cl)cc2)C1=O | inactive: 0.39 | inactive: -1.76 | active: 5.24
NC(=O)c1ncn([C@@H]2O[C@H](CO)[C@@H](O)[C@H]2O)c1N [Acadesine] | inactive: 0.436 | inactive: -1.92 | inactive: 0.482
COc1ccccc1/C(C)=C/CN(C)CCCC(P(=O)(O)O)P(=O)(O)O | inactive: -0.299 | inactive: -1.13 | inactive: 1.11
CN[C@@H]1C[C@H]2O[C@@](C)([C@@H]1OC)n1c3ccccc3c3c4c(c5c6ccccc6n2c5c31)C(=O)N[C@H]4O | inactive: 0.735 | inactive: 0.76 | inactive: -1.26
CN(c1ccc([N+](=O)[O-])c(N2CCC(C(=O)O)CC2)n1)S(=O)(=O)c1ccccc1 | inactive: 0.791 | inactive: -0.51 | inactive: 1.69
NC(=O)c1ncn([C@@H]2O[C@H](CNCc3ccccc3)[C@@H](O)[C@H]2O)c1N | inactive: 2.13 | inactive: -0.867 | inactive: 0.449
COc1cc(NC(=O)Nc2cccc(CNC(=O)O[C@H]3CCOC3)c2)ccc1-c1cnco1 [Merimepodib] | inactive: 3.72 | inactive: -1.33 | inactive: 3.45

Limited to TEAD-luciferase reporter activity (compound concentration: 2 uM) and TEAD-luciferase reporter activity (compound concentration: 200 nM) (2 entries from above):
SMILES,TEAD-luciferase reporter activity (compound concentration: 2 uM),TEAD-luciferase reporter activity (compound concentration: 200 nM)
C=CC[C@@H]1/C=C(\C)C[C@H](C)C[C@H](OC)[C@H]2O[C@@](O)(C(=O)C(=O)N3CCCC[C@H]3C(=O)O[C@H](/C(C)=C/[C@@H]3CC[C@@H](O)[C@H](OC)C3)[C@H](C)[C@@H](O)CC1=O)[C@H](C)C[C@@H]2OC [Tacrolimus],inactive: 0.238,–
CN1C[C@H]2C[C@@H](NC(=O)c3n[nH]c4ccccc34)C[C@@H](C1)N2C,inactive: 1.56,inactive: -3.3
